Assay results as given in the supplement of paper PMC10849652.
Some of the results follow.

Sequences of proteins named here, by UniProt entry; tags and fusion partners are left off. A change or cut given only in a name is not applied to a line headed by its entry.
UniProt O15371, whole entry, looked up: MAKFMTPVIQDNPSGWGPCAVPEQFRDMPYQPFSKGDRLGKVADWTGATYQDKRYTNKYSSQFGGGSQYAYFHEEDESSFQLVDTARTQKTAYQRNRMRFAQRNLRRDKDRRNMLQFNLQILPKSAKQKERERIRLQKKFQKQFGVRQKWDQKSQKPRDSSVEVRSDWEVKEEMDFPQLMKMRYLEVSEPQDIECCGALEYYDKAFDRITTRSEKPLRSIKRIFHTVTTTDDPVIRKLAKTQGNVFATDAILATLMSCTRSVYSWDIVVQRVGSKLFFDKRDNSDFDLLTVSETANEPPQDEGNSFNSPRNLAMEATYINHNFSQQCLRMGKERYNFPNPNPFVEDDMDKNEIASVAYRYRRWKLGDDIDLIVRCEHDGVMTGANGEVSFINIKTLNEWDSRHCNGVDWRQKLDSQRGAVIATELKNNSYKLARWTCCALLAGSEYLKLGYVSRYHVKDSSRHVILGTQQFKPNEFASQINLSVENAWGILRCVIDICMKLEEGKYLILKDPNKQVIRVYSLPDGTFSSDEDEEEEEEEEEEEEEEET
UniProt Q5UCC4: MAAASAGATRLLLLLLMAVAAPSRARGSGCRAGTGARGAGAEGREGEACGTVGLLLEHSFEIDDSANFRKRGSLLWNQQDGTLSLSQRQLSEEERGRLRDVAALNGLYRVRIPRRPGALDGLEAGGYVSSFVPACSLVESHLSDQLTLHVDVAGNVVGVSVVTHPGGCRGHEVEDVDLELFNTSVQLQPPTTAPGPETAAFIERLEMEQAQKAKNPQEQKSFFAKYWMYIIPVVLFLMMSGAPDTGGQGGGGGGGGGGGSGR
UniProt Q9NR50: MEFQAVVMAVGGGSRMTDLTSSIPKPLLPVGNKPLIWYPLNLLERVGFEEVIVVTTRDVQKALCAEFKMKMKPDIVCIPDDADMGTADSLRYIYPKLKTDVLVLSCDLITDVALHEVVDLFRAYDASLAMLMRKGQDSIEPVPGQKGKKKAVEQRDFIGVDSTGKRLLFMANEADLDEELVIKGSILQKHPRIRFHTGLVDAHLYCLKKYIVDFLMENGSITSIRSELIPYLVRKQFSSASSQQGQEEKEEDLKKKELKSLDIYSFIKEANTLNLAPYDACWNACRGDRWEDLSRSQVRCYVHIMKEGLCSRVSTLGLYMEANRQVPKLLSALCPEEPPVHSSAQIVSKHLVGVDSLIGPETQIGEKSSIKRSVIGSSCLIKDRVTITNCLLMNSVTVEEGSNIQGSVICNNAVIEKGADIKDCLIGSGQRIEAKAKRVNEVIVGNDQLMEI
UniProt Q14249: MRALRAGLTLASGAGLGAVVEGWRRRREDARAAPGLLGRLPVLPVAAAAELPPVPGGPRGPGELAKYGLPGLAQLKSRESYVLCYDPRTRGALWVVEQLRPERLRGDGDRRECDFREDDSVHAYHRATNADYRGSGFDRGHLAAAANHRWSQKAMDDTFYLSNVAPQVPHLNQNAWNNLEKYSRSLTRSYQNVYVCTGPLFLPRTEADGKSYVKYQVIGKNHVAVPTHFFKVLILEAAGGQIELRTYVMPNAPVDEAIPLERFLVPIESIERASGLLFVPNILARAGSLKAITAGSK
UniProt P78344: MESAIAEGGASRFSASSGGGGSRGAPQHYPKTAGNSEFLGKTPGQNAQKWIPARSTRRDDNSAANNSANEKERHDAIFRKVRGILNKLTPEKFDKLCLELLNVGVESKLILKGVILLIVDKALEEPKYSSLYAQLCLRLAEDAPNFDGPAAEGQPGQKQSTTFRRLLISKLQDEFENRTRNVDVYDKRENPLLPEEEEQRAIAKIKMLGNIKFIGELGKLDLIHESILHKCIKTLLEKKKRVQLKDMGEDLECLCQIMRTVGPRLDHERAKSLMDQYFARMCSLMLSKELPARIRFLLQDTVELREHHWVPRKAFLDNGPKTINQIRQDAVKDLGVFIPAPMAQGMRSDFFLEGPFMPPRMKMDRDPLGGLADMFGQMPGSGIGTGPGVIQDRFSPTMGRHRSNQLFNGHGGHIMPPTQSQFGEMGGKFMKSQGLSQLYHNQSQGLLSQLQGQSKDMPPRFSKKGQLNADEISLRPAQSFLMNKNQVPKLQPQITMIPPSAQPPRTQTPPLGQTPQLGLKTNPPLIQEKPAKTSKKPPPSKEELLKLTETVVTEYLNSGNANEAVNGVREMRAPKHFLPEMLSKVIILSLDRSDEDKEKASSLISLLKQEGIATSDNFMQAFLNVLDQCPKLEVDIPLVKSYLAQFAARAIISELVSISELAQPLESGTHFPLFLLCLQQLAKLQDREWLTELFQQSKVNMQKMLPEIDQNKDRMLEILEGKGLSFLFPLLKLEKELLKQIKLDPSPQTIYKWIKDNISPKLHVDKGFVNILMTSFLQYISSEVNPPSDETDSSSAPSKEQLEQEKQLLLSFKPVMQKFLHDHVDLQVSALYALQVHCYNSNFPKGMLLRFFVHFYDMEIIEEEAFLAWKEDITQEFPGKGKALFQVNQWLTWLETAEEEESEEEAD
UniProt Q9BW60: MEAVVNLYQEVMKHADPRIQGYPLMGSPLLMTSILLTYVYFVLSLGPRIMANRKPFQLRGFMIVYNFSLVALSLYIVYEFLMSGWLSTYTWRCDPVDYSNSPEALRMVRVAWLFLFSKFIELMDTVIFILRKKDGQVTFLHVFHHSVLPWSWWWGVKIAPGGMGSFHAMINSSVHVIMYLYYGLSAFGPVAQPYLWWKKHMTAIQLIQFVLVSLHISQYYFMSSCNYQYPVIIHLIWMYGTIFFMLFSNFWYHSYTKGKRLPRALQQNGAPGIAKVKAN
UniProt Q7L5Y1: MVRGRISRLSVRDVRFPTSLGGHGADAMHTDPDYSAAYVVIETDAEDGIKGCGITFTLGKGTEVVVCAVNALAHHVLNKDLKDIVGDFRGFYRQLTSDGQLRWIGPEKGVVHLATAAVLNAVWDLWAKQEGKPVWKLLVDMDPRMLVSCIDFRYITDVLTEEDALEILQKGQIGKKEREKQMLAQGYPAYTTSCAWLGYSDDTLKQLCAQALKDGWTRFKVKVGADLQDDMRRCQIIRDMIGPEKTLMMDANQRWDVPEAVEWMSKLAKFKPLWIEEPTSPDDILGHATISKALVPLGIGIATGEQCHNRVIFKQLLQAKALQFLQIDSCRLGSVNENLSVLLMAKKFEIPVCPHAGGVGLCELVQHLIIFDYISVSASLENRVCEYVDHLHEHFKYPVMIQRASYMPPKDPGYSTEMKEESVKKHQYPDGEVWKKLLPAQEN
UniProt Q32P44: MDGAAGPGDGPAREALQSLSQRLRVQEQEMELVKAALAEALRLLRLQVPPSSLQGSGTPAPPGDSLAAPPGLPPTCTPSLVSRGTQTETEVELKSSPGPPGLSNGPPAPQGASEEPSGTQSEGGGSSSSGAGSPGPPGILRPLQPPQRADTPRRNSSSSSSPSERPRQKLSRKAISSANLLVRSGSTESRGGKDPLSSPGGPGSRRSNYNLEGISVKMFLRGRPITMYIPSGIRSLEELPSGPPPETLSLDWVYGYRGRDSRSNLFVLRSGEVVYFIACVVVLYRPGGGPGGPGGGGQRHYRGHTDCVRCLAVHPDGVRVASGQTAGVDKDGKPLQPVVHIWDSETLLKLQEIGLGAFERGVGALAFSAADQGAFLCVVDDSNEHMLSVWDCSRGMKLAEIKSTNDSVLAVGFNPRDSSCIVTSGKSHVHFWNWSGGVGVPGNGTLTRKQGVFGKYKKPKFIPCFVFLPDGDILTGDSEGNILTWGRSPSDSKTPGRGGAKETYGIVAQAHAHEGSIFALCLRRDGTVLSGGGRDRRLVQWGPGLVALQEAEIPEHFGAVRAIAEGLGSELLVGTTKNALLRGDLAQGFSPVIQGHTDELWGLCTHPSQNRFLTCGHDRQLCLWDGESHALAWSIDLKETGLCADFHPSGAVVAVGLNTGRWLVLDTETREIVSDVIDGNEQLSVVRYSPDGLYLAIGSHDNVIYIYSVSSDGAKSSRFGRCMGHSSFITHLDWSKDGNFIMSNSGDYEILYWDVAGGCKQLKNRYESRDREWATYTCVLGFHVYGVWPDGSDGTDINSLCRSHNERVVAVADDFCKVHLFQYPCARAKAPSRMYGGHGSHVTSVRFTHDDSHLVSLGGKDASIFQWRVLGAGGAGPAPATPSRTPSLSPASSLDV
UniProt O43402: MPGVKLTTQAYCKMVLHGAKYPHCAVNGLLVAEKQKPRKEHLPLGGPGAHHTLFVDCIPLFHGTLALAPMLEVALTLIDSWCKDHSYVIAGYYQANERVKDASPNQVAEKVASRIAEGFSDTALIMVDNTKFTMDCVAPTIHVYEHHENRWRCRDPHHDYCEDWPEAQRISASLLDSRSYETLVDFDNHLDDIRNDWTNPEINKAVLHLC
UniProt Q8N9N8: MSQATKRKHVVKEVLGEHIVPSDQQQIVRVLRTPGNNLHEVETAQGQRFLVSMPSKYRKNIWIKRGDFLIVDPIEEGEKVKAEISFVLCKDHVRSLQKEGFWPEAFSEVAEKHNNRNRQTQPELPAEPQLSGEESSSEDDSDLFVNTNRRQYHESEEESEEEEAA
UniProt P26641, whole entry, looked up: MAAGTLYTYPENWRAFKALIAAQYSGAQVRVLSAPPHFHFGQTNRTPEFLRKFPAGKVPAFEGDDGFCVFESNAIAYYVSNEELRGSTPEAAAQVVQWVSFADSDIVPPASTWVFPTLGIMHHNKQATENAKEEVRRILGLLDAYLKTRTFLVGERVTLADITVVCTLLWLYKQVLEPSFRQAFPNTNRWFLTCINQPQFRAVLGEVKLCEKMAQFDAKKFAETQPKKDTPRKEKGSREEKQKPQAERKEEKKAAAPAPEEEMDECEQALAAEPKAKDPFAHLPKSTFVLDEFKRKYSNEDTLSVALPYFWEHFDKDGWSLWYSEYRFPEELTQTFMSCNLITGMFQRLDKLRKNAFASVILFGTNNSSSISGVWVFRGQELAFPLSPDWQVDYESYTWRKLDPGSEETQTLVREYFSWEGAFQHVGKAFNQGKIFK
UniProt P23588, whole entry, looked up: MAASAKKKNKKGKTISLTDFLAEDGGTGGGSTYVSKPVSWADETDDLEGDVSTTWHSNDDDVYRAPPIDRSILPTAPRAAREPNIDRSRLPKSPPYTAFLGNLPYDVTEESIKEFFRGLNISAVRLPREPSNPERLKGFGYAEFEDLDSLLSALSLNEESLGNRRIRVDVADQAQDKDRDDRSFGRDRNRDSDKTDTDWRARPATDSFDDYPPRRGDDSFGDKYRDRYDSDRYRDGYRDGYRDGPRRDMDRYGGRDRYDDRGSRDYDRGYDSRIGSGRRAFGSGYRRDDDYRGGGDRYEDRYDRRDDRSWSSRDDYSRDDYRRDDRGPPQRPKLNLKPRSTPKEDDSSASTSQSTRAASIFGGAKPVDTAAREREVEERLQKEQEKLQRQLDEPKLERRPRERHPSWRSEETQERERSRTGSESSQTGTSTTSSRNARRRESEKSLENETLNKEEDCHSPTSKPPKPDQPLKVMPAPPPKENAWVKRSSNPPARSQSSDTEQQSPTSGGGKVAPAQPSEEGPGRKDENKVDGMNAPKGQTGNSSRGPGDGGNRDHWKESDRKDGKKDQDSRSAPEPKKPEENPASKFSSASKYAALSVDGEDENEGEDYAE
UniProt P20042, whole entry, looked up: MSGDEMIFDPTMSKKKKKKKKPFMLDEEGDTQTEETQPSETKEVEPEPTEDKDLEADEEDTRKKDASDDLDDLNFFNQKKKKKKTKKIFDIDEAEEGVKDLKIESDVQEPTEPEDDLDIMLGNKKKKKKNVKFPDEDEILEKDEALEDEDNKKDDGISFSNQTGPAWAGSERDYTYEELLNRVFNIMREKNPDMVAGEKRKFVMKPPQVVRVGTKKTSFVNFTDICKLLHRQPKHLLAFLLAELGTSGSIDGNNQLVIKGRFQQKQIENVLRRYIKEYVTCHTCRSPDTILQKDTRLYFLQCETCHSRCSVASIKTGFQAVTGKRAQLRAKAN
UniProt Q8NFI3: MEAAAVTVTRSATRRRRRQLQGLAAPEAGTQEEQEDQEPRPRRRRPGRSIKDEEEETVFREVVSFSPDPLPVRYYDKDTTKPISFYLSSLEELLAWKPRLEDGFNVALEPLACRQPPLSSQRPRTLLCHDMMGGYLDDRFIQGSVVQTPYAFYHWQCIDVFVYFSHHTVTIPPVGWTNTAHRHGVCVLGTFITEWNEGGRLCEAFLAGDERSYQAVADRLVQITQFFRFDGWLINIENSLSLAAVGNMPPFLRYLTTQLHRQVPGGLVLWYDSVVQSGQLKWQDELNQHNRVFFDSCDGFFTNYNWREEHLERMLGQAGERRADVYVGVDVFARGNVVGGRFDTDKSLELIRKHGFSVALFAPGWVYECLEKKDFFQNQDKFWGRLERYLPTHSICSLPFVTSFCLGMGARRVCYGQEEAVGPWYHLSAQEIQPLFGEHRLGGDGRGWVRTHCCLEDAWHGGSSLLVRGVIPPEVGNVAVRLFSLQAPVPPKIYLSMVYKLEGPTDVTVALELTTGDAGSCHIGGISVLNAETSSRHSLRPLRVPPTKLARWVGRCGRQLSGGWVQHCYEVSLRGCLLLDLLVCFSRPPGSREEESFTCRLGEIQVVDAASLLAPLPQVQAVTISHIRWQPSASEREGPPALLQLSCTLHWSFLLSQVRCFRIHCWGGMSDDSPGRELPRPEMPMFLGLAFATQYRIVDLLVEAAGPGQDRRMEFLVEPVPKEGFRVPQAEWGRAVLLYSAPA

How the values were obtained:
Assay in all cases: log2 fold change, soluble protein after heating vs DMSO (PISA); higher = thermal stabilisation; K562 cells, 10 uM, 30 min; active = over 0.2 and 3.5 SD of the protein, either way, in both replicates (recomputed)
[1] = compound: NC(=O)Nc1cc(-c2cccc(F)c2)sc1C(=O)N[C@H]1CCCNC1
Method in brief: (§1)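 Soluble protein was defined as the supernatant after 21,000xg for 90 min. It came from K562 cells at 2×10^6 cells/mL given 10 μM compound for 30 min, heated in aliquots for 3 min across 48°C-58°C, pooled, and extracted in PBS with 0.5% NP-40 at 4°C, and was quantified by TMTpro 16plex LC-MS/MS with equalised channel sums. Thermal stability against control samples, from duplicates, is reported as log2 fold change.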

[2] = compound: NC(=O)c1cnc(N[C@@H]2CCCC[C@@H]2N)nc1Nc1cccc(-n2nccn2)c1
Method in brief: as §1

[3] = compound: NC1(c2ccc(-c3nc4ccn5c(=O)[nH]nc5c4cc3-c3ccccc3)cc2)CCC1
Method in brief: as §1

[4] = compound: NCC(=O)Nc1ccc(-n2nc(C(F)(F)F)cc2-c2ccc3c(ccc4ccccc43)c2)cc1
Method in brief: as §1

[5] = compound: Nc1ccccc1NC(=O)c1ccc(CNC(=O)OCc2cccnc2)cc1 [entinostat]
Method in brief: as §1

[6] = compound: O=C(CCCCCCC(=O)Nc1ccccc1)NO [vorinostat]
Method in brief: as §1

[7] = compound: O=C(CCCCCCNC(=O)c1cnc(N(c2ccccc2)c2ccccc2Cl)nc1)NO [citarinostat]
Method in brief: as §1

[8] = compound: O=C(O)c1ccc2c(c1)nc(Nc1cccc(Cl)c1)c1ccncc12 [silmitasertib]
Method in brief: as §1

[9] = compound: O=C1NC(=O)C(c2cnc3ccccn23)=C1c1cn2c3c(cc(F)cc13)CN(C(=O)N1CCCCC1)CC2
Method in brief: as §1

[10] = compound: c1cc(OCCN2CCCCC2)cc(-c2n[nH]c3ccc(-c4nnc[nH]4)cc23)c1
Method in brief: as §1

Measured: log2 fold change

EIF3D (UniProt O15371)
inactive: [1] -0.065 | [2] -0.003 | [3] -0.04 | [4] -0.063 | [5] 0.056 | [6] 0.135 | [7] 0.064 | [8] 0.057 | [9] 0.275 | [10] -0.115

EIF3I (UniProt Q13347)
inactive: [1] -0.034 | [2] -0.082 | [3] -0.086 | [4] -0.057 | [5] 0.056 | [6] 0.044 | [7] 0.068 | [8] 0.065 | [9] 0.073 | [10] -0.071

EMC10 (UniProt Q5UCC4)
inactive: [1] -0.003 | [2] 0.002 | [3] -0.064 | [4] 0.021 | [5] 0.03 | [6] 0.041 | [7] 0.007 | [8] -0.04 | [9] -0.011 | [10] -0.021

EED, A0A5F9ZI63
inactive: [1] 0.03 | [2] 0.053 | [3] 0.037 | [4] -0.029 | [5] -0.039 | [6] 0.021 | [7] 0.098 | [8] 0.078 | [9] 0.065 | [10] -0.078

EIF2B3 (UniProt Q9NR50)
inactive: [1] 0.008 | [2] -0.026 | [3] 0.011 | [4] 0.013 | [5] -0.001 | [6] 0.011 | [7] 0.054 | [8] 0.106 | [9] 0.083 | [10] -0.082

ENDOG (UniProt Q14249)
inactive: [1] 0.018 | [2] 0.048 | [3] -0.038 | [4] 0.079 | [5] -0.012 | [6] 0.052 | [7] 0.01 | [8] 0.058 | [9] -0.065 | [10] -0.003

EIF4G2 (UniProt P78344)
inactive: [1] 0.017 | [2] -0.028 | [3] 0.139 | [4] 0.004 | [5] 0.073 | [6] 0.047 | [7] -0.182 | [8] 0.155 | [9] 0.285 | [10] -0.332

EIF3F (UniProt O00303)
inactive: [1] 0.127 | [2] 0.012 | [3] -0.063 | [4] -0.049 | [5] 0.034 | [6] 0.028 | [7] 0.04 | [8] 0.058 | [9] 0.086 | [10] -0.021

Copied from the listing (2 entries):
EED, A0A5F9ZI63
inactive: [1] 0.03 | [2] 0.053 | [3] 0.037 | [4] -0.029 | [5] -0.039 | [6] 0.021 | [7] 0.098 | [8] 0.078 | [9] 0.065 | [10] -0.078

EIF2B3 (UniProt Q9NR50)
inactive: [1] 0.008 | [2] -0.026 | [3] 0.011 | [4] 0.013 | [5] -0.001 | [6] 0.011 | [7] 0.054 | [8] 0.106 | [9] 0.083 | [10] -0.082

(cont.)

ELOVL1 (UniProt Q9BW60)
inactive: [1] 0.017 | [2] -0.191 | [3] -0.087 | [4] -0.055 | [5] 0.05 | [6] 0.321 | [7] -0.006 | [8] -0.046 | [9] 0.002 | [10] 0.035

ENOSF1 (UniProt Q7L5Y1)
inactive: [1] -0.043 | [2] 0.051 | [3] -0.15 | [4] -0.031 | [5] -0.036 | [6] -0.014 | [7] -0.088 | [8] 0.003 | [9] -0.038 | [10] -0.062

EML3 isoform 2 (UniProt Q32P44)
inactive: [1] -0.155 | [2] 0.001 | [3] 0.083 | [4] -0.122 | [5] -0.08 | [6] -0.017 | [7] -0.035 | [8] 0.049 | [9] 0.224 | [10] -0.039

EMC8 (UniProt O43402)
inactive: [1] 0.031 | [2] -0.018 | [3] -0.052 | [4] 0.033 | [5] 0.002 | [6] -0.01 | [7] 0.035 | [8] 0.041 | [9] -0.04 | [10] -0.018

EIF1AD (UniProt Q8N9N8)
inactive: [1] -0.036 | [2] -0.09 | [3] 0.027 | [4] -0.03 | [5] -0.007 | [6] -0.055 | [7] 0.006 | [8] 0.017 | [9] -0.027 | [10] 0.019

EIF3M (UniProt Q7L2H7)
inactive: [1] -0.04 | [2] -0.011 | [3] -0.137 | [4] 0.027 | [5] 0.086 | [6] 0.069 | [7] 0.078 | [8] 0.104 | [9] 0.006 | [10] -0.092

EIF4ENIF1 isoform 3 (UniProt Q9NRA8)
inactive: [1] -0.045 | [2] 0.005 | [3] -0.223 | [4] -0.086 | [5] -0.004 | [6] -0.061 | [7] 0.081 | [8] 0.042 | [9] -0.024 | [10] -0.011

EP300 (UniProt Q09472)
inactive: [1] -0.067 | [2] -0.061 | [3] -0.081 | [4] 0 | [5] 0.01 | [6] 0.056 | [7] 0.077 | [8] -0.081 | [9] -0.172 | [10] -0.053

EI24 (UniProt O14681)
inactive: [1] 0.044 | [2] -0.077 | [3] 0.026 | [4] 0 | [5] 0.004 | [6] 0.005 | [7] 0.004 | [8] 0.02 | [9] 0.053 | [10] 0.005

EHHADH (UniProt Q08426)
inactive: [1] -0.051 | [2] -0.022 | [3] -0.042 | [4] -0.061 | [5] -0.015 | [6] 0.036 | [7] 0.015 | [8] 0.016 | [9] -0.011 | [10] -0.016

EIF4G1 isoform 8 (UniProt Q04637)
inactive: [1] -0.104 | [2] -0.273 | [3] -0.154 | [4] -0.106 | [5] 0.185 | [6] 0.116 | [7] 0.058 | [8] -0.045 | [9] 0.194 | [10] -0.269

EEF1G isoform 2 (UniProt P26641)
inactive: [1] -0.005 | [2] -0.039 | [3] -0.1 | [4] 0.011 | [5] 0.036 | [6] 0.059 | [7] 0.035 | [8] 0.014 | [9] 0.003 | [10] -0.046

EIF3C (UniProt Q99613)
inactive: [1] -0.101 | [2] -0.077 | [3] -0.056 | [4] -0.039 | [5] 0.047 | [6] 0.111 | [7] 0.032 | [8] 0.098 | [9] 0.168 | [10] -0.131

ELOB (UniProt Q15370)
inactive: [1] -0.022 | [2] -0.116 | [3] -0.033 | [4] -0.065 | [5] 0.035 | [6] 0.016 | [7] 0.001 | [8] -0.014 | [9] -0.106 | [10] -0.033

EIF4B (UniProt P23588)
inactive: [1] -0.003 | [2] 0.009 | [3] 0.035 | [4] -0.01 | [5] -0.006 | [6] -0.04 | [7] -0.028 | [8] -0.013 | [9] -0.046 | [10] 0.053

EIF2S2 (UniProt P20042)
inactive: [1] 0.023 | [2] 0.047 | [3] 0.147 | [4] 0.043 | [5] -0.008 | [6] 0.023 | [7] -0.051 | [8] 0.051 | [9] 0.124 | [10] -0.066

ENGASE (UniProt Q8NFI3)
inactive: [1] 0.002 | [2] -0.099 | [3] -0.061 | [4] 0.04 | [5] -0.038 | [6] 0.021 | [7] 0.024 | [8] 0.009 | [9] -0.024 | [10] -0.012

EMC6 (UniProt Q9BV81)
inactive: [1] 0.064 | [2] 0.038 | [3] -0.056 | [4] -0.074 | [5] -0.028 | [6] 0.13 | [7] 0.102 | [8] -0.007 | [9] -0.105 | [10] -0.022

EIF5 (UniProt P55010)
inactive: [1] -0.047 | [2] -0.002 | [3] -0.045 | [4] -0.024 | [5] 0.027 | [6] 0.001 | [7] -0.013 | [8] 0.006 | [9] -0.075 | [10] -0.008
